Reference: the supplement of paper PMC6078165
Values are relative to the signal before dosing, not to a vehicle control; the signal also falls without drug.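 Labels refer to human fibroblasts, largely primary: uterine (C12385, HUF), lung (H6013), bone (Hs27A), adrenal (HADF), skin (WS1), plus mammary HMF and breast cancer-associated Hs343T. Cancer lines are basal-like or mesenchymal-like triple-negative breast cancer. The paper counts as hits responses shifting over 3x the replicate standard deviation. The tissue of the other fibroblasts is not given here.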

Test system: MDAMB436
Assay: relative JC-1 red fluorescence (viability) vs pre-drug, coculture with fibroblast (fraction); higher = more viable cancer cells
Experimental: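 JC-1 labelled TNBC cells cocultured 1:1 (1,500 cells each) with CellTrace Violet stained primary or stromal fibroblasts in 384-well plates in FluoroBrite medium, treated with one of 42 anticancer drugs at 0.1, 1, 10 or 100 uM. JC-1 red fluorescence (mitochondrial integrity in cancer cells only) was read by plate reader every 8 h for 72 h. Values are normalised to each well's pre-drug value. The stock of one drug was tenfold lower, so its dose labels may be too high.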

CCc1c2c(nc3ccc(OC(=O)N4CCC(N5CCCCC5)CC4)cc13)-c1cc3c(c(=O)n1C2)COC(=O)[C@]3(O)CC [Irinotecan]
relative JC-1 red fluorescence
Conditions	8 h	16 h	24 h	32 h	40 h	48 h	56 h	64 h	72 h
0.1 µM, coculture fibroblast: C12385	0.779	0.683	0.694	0.62	0.589	0.57	0.559	0.547	0.552
0.1 µM, coculture fibroblast: H6013	0.8092	0.801	0.787	0.776	0.759	0.775	0.73	0.709	0.653
0.1 µM, coculture fibroblast: H6019	0.7221	0.676	0.638	0.558	0.527	0.507	0.472	0.442	0.416
0.1 µM, coculture fibroblast: H6076	0.765	0.695	0.687	0.636	0.618	0.589	0.592	0.581	0.572
0.1 µM, coculture fibroblast: H6231	0.78629	0.673	0.6621	0.573	0.537	0.499	0.488	0.4595	0.4412
0.1 µM, coculture fibroblast: HADF	0.796	0.695	0.657	0.613	0.581	0.584	0.525	0.515	0.478
0.1 µM, coculture fibroblast: HCFa	0.743	0.684	0.643	0.599	0.57	0.576	0.514	0.502	0.4462
0.1 µM, coculture fibroblast: HCPF	0.727	0.675	0.6723	0.612	0.597	0.564	0.552	0.53	0.514
0.1 µM, coculture fibroblast: HHSteC	0.795	0.772	0.735	0.699	0.684	0.685	0.619	0.593	0.54
0.1 µM, coculture fibroblast: HMF	0.727	0.668	0.634	0.579	0.574	0.544	0.543	0.516	0.508
0.1 µM, coculture fibroblast: HPFa	0.843	0.763	0.718	0.685	0.652	0.66	0.577	0.541	0.47
0.1 µM, coculture fibroblast: HUF	0.827	0.725	0.69	0.613	0.557	0.535	0.512	0.491	0.484
0.1 µM, coculture fibroblast: Hs5	0.754	0.708	0.7	0.6392	0.6216	0.578	0.584	0.543	0.533
0.1 µM, coculture fibroblast: Hs27A	0.785	0.694	0.648	0.615	0.579	0.628	0.536	0.513	0.438
0.1 µM, coculture fibroblast: Hs343T	0.735	0.659	0.6197	0.569	0.538	0.5	0.486	0.475	0.469
0.1 µM, coculture fibroblast: WS1	0.7547	0.686	0.661	0.576	0.538	0.507	0.483	0.448	0.438
1 µM, coculture fibroblast: C12385	0.754	0.711	0.716	0.644	0.61	0.5974	0.5908	0.5871	0.5919
1 µM, coculture fibroblast: H6013	0.832	0.816	0.808	0.806	0.801	0.836	0.789	0.778	0.728
1 µM, coculture fibroblast: H6019	0.725	0.712	0.714	0.65	0.621	0.607	0.576	0.547	0.523
1 µM, coculture fibroblast: H6076	0.754	0.689	0.679	0.628	0.608	0.586	0.607	0.599	0.604
1 µM, coculture fibroblast: H6231	0.73	0.6464	0.691	0.597	0.577	0.548	0.544	0.523	0.507
1 µM, coculture fibroblast: HADF	0.795	0.8	0.782	0.753	0.749	0.796	0.731	0.737	0.696
1 µM, coculture fibroblast: HCFa	0.797	0.772	0.723	0.676	0.656	0.673	0.603	0.585	0.529
1 µM, coculture fibroblast: HCPF	0.796	0.772	0.777	0.701	0.676	0.634	0.615	0.596	0.571
1 µM, coculture fibroblast: HHSteC	0.817	0.802	0.78	0.734	0.733	0.742	0.688	0.666	0.619
1 µM, coculture fibroblast: HMF	0.765	0.706	0.693	0.634	0.603	0.563	0.553	0.5311	0.518
1 µM, coculture fibroblast: HPFa	0.894	0.825	0.782	0.72	0.703	0.705	0.624	0.589	0.512
1 µM, coculture fibroblast: HUF	0.82	0.745	0.726	0.647	0.595	0.564	0.538	0.525	0.527
1 µM, coculture fibroblast: Hs5	0.766	0.727	0.734	0.69	0.678	0.642	0.655	0.635	0.623
1 µM, coculture fibroblast: Hs27A	0.823	0.762	0.75586	0.724	0.707	0.784	0.667	0.653	0.577
1 µM, coculture fibroblast: Hs343T	0.7369	0.6981	0.685	0.639	0.617	0.586	0.579	0.563	0.567
1 µM, coculture fibroblast: WS1	0.745	0.715	0.717	0.646	0.608	0.5934	0.583	0.564	0.56
10 µM, coculture fibroblast: C12385	0.826	0.744	0.767	0.696	0.662	0.639	0.62	0.599	0.597
10 µM, coculture fibroblast: H6013	0.818	0.7846	0.7658	0.7654	0.756	0.7738	0.747	0.736	0.703
10 µM, coculture fibroblast: H6019	0.805	0.797	0.816	0.759	0.748	0.732	0.717	0.703	0.696
10 µM, coculture fibroblast: H6076	0.768	0.719	0.695	0.641	0.616	0.592	0.576	0.555	0.5488
10 µM, coculture fibroblast: H6231	0.805	0.727	0.689	0.617	0.584	0.549	0.538	0.506	0.494
10 µM, coculture fibroblast: HADF	0.8441	0.786	0.764	0.718	0.705	0.706	0.651	0.633	0.591
10 µM, coculture fibroblast: HCFa	0.812	0.7674	0.729	0.697	0.6669	0.6709	0.6097	0.60188	0.5546
10 µM, coculture fibroblast: HCPF	0.798	0.691	0.666	0.599	0.571	0.52	0.493	0.468	0.455
10 µM, coculture fibroblast: HHSteC	0.831	0.8264	0.7912	0.76	0.755	0.76	0.709	0.686	0.637
10 µM, coculture fibroblast: HMF	0.702	0.6345	0.6019	0.55	0.535	0.497	0.493	0.478	0.468
10 µM, coculture fibroblast: HPFa	0.9378	0.869	0.867	0.839	0.841	0.844	0.79	0.772	0.719
10 µM, coculture fibroblast: HUF	0.873	0.8003	0.7856	0.7186	0.6716	0.6368	0.609	0.594	0.593
10 µM, coculture fibroblast: Hs5	0.752	0.666	0.635	0.577	0.558	0.52	0.523	0.497	0.494
10 µM, coculture fibroblast: Hs27A	0.898	0.84	0.808	0.795	0.78	0.837	0.767	0.774	0.716
10 µM, coculture fibroblast: Hs343T	0.7107	0.682	0.65	0.606	0.579	0.541	0.525	0.507	0.499
10 µM, coculture fibroblast: WS1	0.832	0.755	0.763	0.702	0.672	0.644	0.625	0.6	0.587
100 µM, coculture fibroblast: C12385	0.8546	0.855	0.8688	0.8226	0.7899	0.78	0.767	0.7532	0.747
100 µM, coculture fibroblast: H6013	0.958	0.846	0.848	0.915	0.872	0.787	0.756	0.732	0.847
100 µM, coculture fibroblast: H6019	0.864	0.857	0.882	0.836	0.83	0.834	0.818	0.819	0.82
100 µM, coculture fibroblast: H6076	0.821	0.803	0.823	0.799	0.789	0.764	0.782	0.786	0.785
100 µM, coculture fibroblast: H6231	0.785	0.798	0.852	0.783	0.755	0.716	0.722	0.709	0.683
100 µM, coculture fibroblast: HADF	0.92	0.939	0.946	0.924	0.943	0.823	0.928	0.927	0.894
100 µM, coculture fibroblast: HCFa	0.9469	0.956	0.957	0.943	0.958	0.9813	0.95	0.972	0.953
100 µM, coculture fibroblast: HCPF	0.787	0.776	0.805	0.749	0.721	0.687	0.68	0.672	0.662
100 µM, coculture fibroblast: HHSteC	0.96	0.933	0.927	0.856	0.862	0.94	0.93418	0.814	0.803
100 µM, coculture fibroblast: HMF	0.844	0.822	0.846	0.8	0.774	0.745	0.743	0.723	0.704
100 µM, coculture fibroblast: HPFa	0.893	0.923	0.877	0.872	0.897	0.865	0.822	0.873	0.902
100 µM, coculture fibroblast: HUF	0.914	0.886	0.896	0.836	0.786	0.761	0.74	0.736	0.733
100 µM, coculture fibroblast: Hs5	0.768	0.753	0.79	0.755	0.783	0.749	0.7971	0.77934	0.786
100 µM, coculture fibroblast: Hs27A	0.832	0.95	0.878	0.778	0.766	0.861	0.9241	0.785	0.912
100 µM, coculture fibroblast: Hs343T	0.879	0.83	0.911	0.857	0.811	0.76	0.735	0.721	0.7035
100 µM, coculture fibroblast: WS1	0.8486	0.83386	0.8372	0.7879	0.77	0.757	0.743	0.7249	0.7205
